Results published in PMC8534010.
Results are given in words; binding and its absence hold for the method and conditions named. Binding seen in cells or lysates may run through a third protein.

By UniProt entry, the sequences of proteins in these tests, tags left out. Where a name states a change or a piece, a line headed by the entry shows the natural chain unless it says otherwise.
UniProt P03372: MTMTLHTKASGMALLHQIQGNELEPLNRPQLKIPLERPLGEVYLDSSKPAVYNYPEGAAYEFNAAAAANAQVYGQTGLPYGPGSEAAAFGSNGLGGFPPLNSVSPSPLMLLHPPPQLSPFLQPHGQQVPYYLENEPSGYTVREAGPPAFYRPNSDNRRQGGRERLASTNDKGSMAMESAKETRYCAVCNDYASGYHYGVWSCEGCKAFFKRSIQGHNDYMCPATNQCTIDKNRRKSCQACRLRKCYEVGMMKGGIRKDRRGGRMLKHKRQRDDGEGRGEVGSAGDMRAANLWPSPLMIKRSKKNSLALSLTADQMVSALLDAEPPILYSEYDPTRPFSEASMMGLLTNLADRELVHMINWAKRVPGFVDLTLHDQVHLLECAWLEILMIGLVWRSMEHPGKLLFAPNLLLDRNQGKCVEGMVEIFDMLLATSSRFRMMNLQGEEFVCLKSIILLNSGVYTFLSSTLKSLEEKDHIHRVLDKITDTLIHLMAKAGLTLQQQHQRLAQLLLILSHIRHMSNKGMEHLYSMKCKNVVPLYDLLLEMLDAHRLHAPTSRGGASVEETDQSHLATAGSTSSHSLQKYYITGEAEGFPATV
UniProt P42224: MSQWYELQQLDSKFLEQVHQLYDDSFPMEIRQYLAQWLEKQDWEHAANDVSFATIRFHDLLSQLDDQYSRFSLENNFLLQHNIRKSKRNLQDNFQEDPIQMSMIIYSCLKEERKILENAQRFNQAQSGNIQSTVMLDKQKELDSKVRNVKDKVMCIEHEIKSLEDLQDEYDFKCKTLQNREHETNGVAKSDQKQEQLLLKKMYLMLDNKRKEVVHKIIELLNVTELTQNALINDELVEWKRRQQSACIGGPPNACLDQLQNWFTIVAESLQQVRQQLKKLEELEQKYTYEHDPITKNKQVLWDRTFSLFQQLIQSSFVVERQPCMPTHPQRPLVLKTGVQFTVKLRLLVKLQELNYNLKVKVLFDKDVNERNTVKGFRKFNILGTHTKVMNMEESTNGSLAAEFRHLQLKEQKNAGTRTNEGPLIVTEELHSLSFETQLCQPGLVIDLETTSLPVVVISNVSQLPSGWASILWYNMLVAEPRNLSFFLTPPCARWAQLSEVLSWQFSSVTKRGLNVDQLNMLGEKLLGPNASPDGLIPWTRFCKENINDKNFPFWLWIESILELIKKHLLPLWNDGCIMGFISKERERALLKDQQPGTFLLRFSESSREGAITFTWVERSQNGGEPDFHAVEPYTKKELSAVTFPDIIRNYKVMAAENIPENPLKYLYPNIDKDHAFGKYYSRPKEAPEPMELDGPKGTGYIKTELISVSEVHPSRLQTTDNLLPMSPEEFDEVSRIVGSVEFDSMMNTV

What was measured:
[1] = molecular target: estrogen receptor (ERα) (human (endogenous in MCF-7:5C, MCF-7 and T47D)) (UniProt P03372); experiment: proximity ligation; Duolink PLA Fluorescence on fixed, permeabilised T47D (AI-sensitive) cells, ERα rabbit and STAT1 mouse antibodies
[2] = molecular target: estrogen receptor (ERα) (human (endogenous in MCF-7:5C, MCF-7 and T47D)) (UniProt P03372); experiment: proximity ligation; Duolink PLA Fluorescence on fixed, permeabilised MCF-7 (AI-sensitive) cells, ERα rabbit and STAT1 mouse antibodies
[3] = molecular target: estrogen receptor (ERα) (human (endogenous in MCF-7:5C, MCF-7 and T47D)) (UniProt P03372); experiment: co-IP; T47D (AI-sensitive) cell lysate incubated overnight at 4 °C with 2 µg anti-ERα or rabbit IgG, Protein A/G magnetic beads, Western blot
[4] = molecular target: estrogen receptor (ERα) (human (endogenous in MCF-7:5C, MCF-7 and T47D)) (UniProt P03372); experiment: co-IP; MCF-7 (AI-sensitive) cell lysate incubated overnight at 4 °C with 2 µg anti-ERα or rabbit IgG, Protein A/G magnetic beads, Western blot

STAT1 (from UniProt P42224 1-750)
binding [1]: no binding (condition: in AI-sensitive T47D cells)
binding [2]: no binding (condition: in AI-sensitive MCF-7 cells)
binding [3]: no binding (condition: in AI-sensitive T47D cells)
binding [4]: no binding (condition: in AI-sensitive MCF-7 cells)
